Binding data for 2 substances are collected here from paper PMC8471926.

Sequences of proteins named here, by UniProt entry; tags and fusion partners are left off. A change or cut given only in a name is not applied to a line headed by its entry.
UniProt O60934: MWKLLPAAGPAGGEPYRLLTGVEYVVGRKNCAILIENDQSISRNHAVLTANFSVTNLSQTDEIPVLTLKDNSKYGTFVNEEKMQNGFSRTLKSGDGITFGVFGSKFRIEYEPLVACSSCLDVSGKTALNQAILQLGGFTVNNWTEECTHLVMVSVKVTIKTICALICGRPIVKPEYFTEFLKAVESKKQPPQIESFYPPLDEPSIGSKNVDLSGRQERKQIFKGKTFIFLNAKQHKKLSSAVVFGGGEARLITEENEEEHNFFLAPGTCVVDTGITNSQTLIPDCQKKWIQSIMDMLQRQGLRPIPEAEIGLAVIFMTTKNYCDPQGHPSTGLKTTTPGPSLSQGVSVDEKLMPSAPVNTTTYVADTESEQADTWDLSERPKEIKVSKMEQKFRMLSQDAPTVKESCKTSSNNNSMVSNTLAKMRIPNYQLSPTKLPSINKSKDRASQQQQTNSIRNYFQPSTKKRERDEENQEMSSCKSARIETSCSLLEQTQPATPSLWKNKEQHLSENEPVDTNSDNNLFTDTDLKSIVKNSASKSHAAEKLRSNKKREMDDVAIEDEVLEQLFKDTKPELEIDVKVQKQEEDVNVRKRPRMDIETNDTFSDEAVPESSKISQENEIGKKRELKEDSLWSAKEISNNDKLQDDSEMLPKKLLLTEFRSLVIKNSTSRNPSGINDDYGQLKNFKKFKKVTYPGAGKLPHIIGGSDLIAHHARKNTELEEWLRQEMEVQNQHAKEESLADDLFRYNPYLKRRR
UniProt Q00987: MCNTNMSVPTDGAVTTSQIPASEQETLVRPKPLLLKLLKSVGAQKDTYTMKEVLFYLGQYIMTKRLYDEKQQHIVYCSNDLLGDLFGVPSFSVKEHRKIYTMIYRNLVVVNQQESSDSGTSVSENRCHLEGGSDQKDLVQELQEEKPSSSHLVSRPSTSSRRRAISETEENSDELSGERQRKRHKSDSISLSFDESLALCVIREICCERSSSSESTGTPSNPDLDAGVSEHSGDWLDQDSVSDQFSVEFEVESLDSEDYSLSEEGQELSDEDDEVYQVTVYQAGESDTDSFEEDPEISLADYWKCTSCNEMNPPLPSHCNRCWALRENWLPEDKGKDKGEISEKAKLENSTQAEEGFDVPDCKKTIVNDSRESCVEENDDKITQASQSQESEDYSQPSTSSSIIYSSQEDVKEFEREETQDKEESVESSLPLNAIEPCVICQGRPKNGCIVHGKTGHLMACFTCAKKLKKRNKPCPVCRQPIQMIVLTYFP

No constants are given. Whether binding was seen depends on the method and setting. Binding seen in cells or lysates may run through a third protein. Some results given as binding are weak or reduced against the parent protein; the word gives no strength.

The target in this experiment is NBN (human (endogenous in H1299)) (UniProt O60934). In words: proximity ligation; H1299 cells expressing exogenous MDM2 (GFP co-transfection marker), 40 min after 150 nM NCS; fixed with methanol; Duolink In Situ Detection Reagents Red with anti-mouse MINUS and anti-rabbit PLUS probes; confocal microscopy, PLA foci per nucleus.

Consider MDM2 K454A (from UniProt Q00987 1-491), for which the binding entry is “binds”.

For MDM2 WT (from UniProt Q00987 1-491), the binding entry is recorded as “binds”.
